From patent publication US8211931B2, “Active compound combinations having insecticidal and acaricidal properties” (Bayer Cropscience AG, priority 2006, dated 2012)

System: Anthocoris nemoralis
Experiment: Field test on pear trees, number of the beneficial species
Type: in vivo
Conditions: 14 d

| SMILES | Number of Anthocoris nemoralis (75 g/ha/m crown height, 100 OD) | Number of Anthocoris nemoralis (400 g/ha/m crown height, UL 400) |
| --- | --- | --- |
| CCOC(=O)OC1=C(c2cc(C)ccc2C)C(=O)N[C@]12CC[C@@H](OC)CC2 [Ex. I-4′] | 12 | – |
| Cc1ccc(/N=C/N(C)/C=N/c2ccc(C)cc2C)c(C)c1 [Amitraz, reference compound] | – | 5 |
